# Laboratory results published in PubChem BioAssay AID485314 (National Center for Advancing Translational Sciences (NCATS), 2010).
# The whole screen tested about 340,000 compounds, of which about 4,500 (1.3%) were called active. Inconclusive means that the source gave no clear call. Such entries were picked first, then a sample of the others. Calls come from the whole dose curve; as a rule, active = well fitted inhibition curve with a large enough effect; inconclusive = small, poorly fitted or top-dose-only effect, or another doubt; inactive = no such curve, though single readings can be large or run the other way. Potencies beside an inconclusive call are fits to weak or partial responses and may not hold up.
# Molecular target: DNA polymerase beta (Homo sapiens) (UniProt P06746)
# Test: qHTS Assay for Inhibitors of DNA Polymerase Beta
# Conditions: Pol beta primer extension/strand displacement, fluorescence kinetic; activity change, negative = inhibition: at 114 µM (top of the series)
# Procedure, shortened: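 Enzyme-only controls used 10 nM Pol beta; buffer lacking enzyme served as negative control. Compound preincubated 15 min, then 50 nM substrate added; 0 and 10 min reads at room temperature.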
# % is set by controls: 0 for no effect and ±100 for the full control effect; potency is the fitted concentration of half-maximal effect.
SMILES,Potency,"activity change, negative = inhibition"
CC(C)(C)C1CCc2c(sc(NC(=O)Cn3nnc(-c4ccccc4Cl)n3)c2C#N)C1 (configuration not stated),"inconclusive: 20 µM [inhibitor, partial curve, poor fit]",
C=CCSC1=N/C(=C\c2sccc2C)C(=O)S1,,inactive: -2.4%
Cc1ccc(Cn2cccc(-c3nc4ccccc4s3)c2=O)cc1,"inconclusive: 17.8 µM [inhibitor, single point]",
CCOc1ccc(CCNC(=O)CCS(=O)(=O)c2ccc(Br)cc2)cc1OCC,,inactive: -22.1%
Cc1ccc(S(=O)(=O)C2(C(=O)Nc3ccc(Cl)c(C(F)(F)F)c3)CC2)cc1,,inactive: -6.16%
COc1ccccc1C(=O)N/C(=C/c1ccc(Br)cc1)C(=O)NCC(=O)O,,inactive: 34.8%
CC(C)C(NC(=O)/C(=C\c1ccco1)NC(=O)c1ccco1)C(=O)O (configuration not stated),active: 22.4 µM,
Cc1ccc(N=Cc2c(O)c3ccccc3n(C)c2=O)cc1,"inconclusive: 39.8 µM [inhibitor, single point]",
COc1ccc(-c2nc(SCC(=O)Nc3ccc4c(c3)OCCO4)c(-c3ccc(F)cc3)[nH]2)cc1,active: 39.8 µM,
COc1ccc(CCNC(=O)CSc2ccsc2[N+](=O)[O-])cc1OC,"inconclusive: 28.2 µM [inhibitor, partial curve]",
O=[N+]([O-])c1c(NCCO)cc(N2CCCCCC2)c2nonc12,"inconclusive: 39.8 µM [inhibitor, single point]",
CCn1c(C)c(C)c2cc(C(=O)NCCCN3CCCCCC3)ccc21,,inactive: 5.07%
Cc1[nH]c2ccccc2c1-c1csc(NC(=O)CSCCO)n1,"inconclusive: 100 µM [inhibitor, single point]",
O=C1c2oc3ccccc3c(=O)c2C(c2cccc(O)c2)N1c1nncs1 (configuration not stated),"inconclusive: 35.5 µM [inhibitor, full curve]",
O=C(Cn1c(=O)nc(-c2ccccc2)c2ccccc21)NCCc1ccccc1,"inconclusive: 89.1 µM [inhibitor, single point]",
COc1cc(NC(=O)/C=C/c2ccccc2[N+](=O)[O-])cc(OC)c1,"inconclusive: 39.8 µM [inhibitor, partial curve]",
COc1ccc2c(c1)c(=O)oc1cc(OCC(=O)N3CCCC(C)C3)ccc12 (configuration not stated),active: 3.98 µM,
CSc1ccc(/C=C/C(=O)NC(=O)c2ccccc2O)cc1,active: 35.5 µM,
CCOC(CC(=O)NNC(=O)c1c(-c2c(Cl)cccc2Cl)noc1C)OCC,"inconclusive: 89.1 µM [inhibitor, single point]",
O=C(NNC(=O)c1ccc(NC(=O)c2ccccc2)cc1)c1ccc(F)cc1,"inconclusive: 20 µM [inhibitor, full curve]",
c1ccc(CCCN2CCOCC2)cc1,"inconclusive: 31.6 µM [inhibitor, full curve]",
CC(=O)Nc1cccc(NC(=O)CSc2ccc(-c3ccco3)nn2)c1,active: 25.1 µM,
CCC(=O)c1ccc(OCC(O)CN2CCCCC2)cc1 (configuration not stated),"inconclusive: 39.8 µM [inhibitor, single point]",
COc1nccnc1NS(=O)(=O)c1ccc(NC(=S)NC(=O)/C=C/c2ccccc2)cc1,"inconclusive: 56.2 µM [inhibitor, partial curve, poor fit]",

SMILES,Potency,"activity change, negative = inhibition"
O=C(O)C1=NN(c2ccccc2)C(=O)C1,"inconclusive: 39.8 µM [inhibitor, single point]",
O=C(CCc1ccccc1)NNC(=O)Nc1ccccc1,,inactive: -15.3%
CC(=O)c1ccc(NC(=S)N2CCC(Cc3ccccc3)CC2)cc1,"inconclusive: 0.251 µM [inhibitor, full curve, poor fit]",
Cc1ccccc1NC(=O)NNC(=O)CCc1ccccc1,"inconclusive: 3.55 µM [inhibitor, single point]",
C/C(=N\N=C(/N)SC1CC(=O)N(c2cccc(Cl)c2)C1=O)c1cccs1 (configuration not stated),"inconclusive: 28.2 µM [inhibitor, full curve]",
Brc1ccc(N/N=C(/N=Nc2nn[nH]n2)c2ccccc2)cc1,"inconclusive: 89.1 µM [inhibitor, single point]",
N#Cc1c(N)nc2c3c(sc(=N)c2c1N)NC(=O)CC3c1c(F)cccc1Cl (configuration not stated),,inactive: 27.4%
O=C(Cn1c(=O)oc2cc(S(=O)(=O)NCc3ccccc3)ccc21)Nc1cccc(F)c1,"inconclusive: 15.8 µM [inhibitor, full curve, poor fit]",
O=C(NC1CCSC1=O)c1cccc(C(=O)NC2CCSC2=O)c1 (configuration not stated),active: 50.1 µM,
CCN(CCO)C(=S)Nc1cc(C(=O)OC)ccc1C(=O)OC,"inconclusive: 79.4 µM [inhibitor, single point]",
CCOc1cc(/C=C(/C#N)c2ccc(F)cc2)ccc1OCc1ccc(C(=O)O)o1,,inactive: -12.4%
COc1ccc(NC(=S)N(CCCOC(C)C)C2CCN(C(C)=O)CC2)cc1Cl,"inconclusive: 89.1 µM [inhibitor, single point]",
O=C(COc1ccccc1Cl)Nc1ccc(-c2nc3ccccc3s2)cc1,,inactive: -21.1%
C(=N\NC1=Nc2cccc3cccc1c23)/c1ccccn1,"inconclusive: 79.4 µM [inhibitor, partial curve]",
Cc1ccc2[nH]c(=O)c3cc(C(=O)N4CCN(C(=O)c5ccco5)CC4)sc3c2c1,"inconclusive: 25.1 µM [inhibitor, full curve]",
O=C(Oc1cccnc1)c1cc2ccccc2oc1=O,"inconclusive: 89.1 µM [inhibitor, single point]",
C#CCOCCOCCOCCNc1nc(N2CCN(C(=O)C(Cc3ccc(O)cc3)n3cc(C(N)CC(C)C)nn3)CC2)nc(N2CCN(C(=O)C(Cc3cc4ccccc4[nH]3)n3cc(C(N)Cc4ccc(O)cc4)nn3)CC2)n1 (configuration not stated),active: 35.5 µM,
CCC(=O)Nc1ccc2c(c1)C(=O)c1ccccc1C2=O,"inconclusive: 28.2 µM [inhibitor, single point]",
C=CCn1c(SCc2cc(=O)n3ccsc3n2)nc2ccccc2c1=O,"inconclusive: 1.78 µM [inhibitor, full curve]",
Cc1cccc(C2=N/C(=C/c3cccs3)C(=O)O2)c1,,inactive: -0.905%
O=C(CN1CCN(c2ccc(O)cc2)CC1)NC(=O)NCc1ccco1,"inconclusive: 20 µM [inhibitor, single point]",
CCN(c1ccccc1)S(=O)(=O)c1ccc2[nH]cc(C(=O)NCCOC)c(=O)c2c1,,inactive: -12.9%
CCn1c(SC(C)C(=O)O)nc2sc3c(c2c1=O)CCC3 (configuration not stated),active: 8.91 µM,
Cc1cccc(N2CCN(C(=O)CSc3ccsc3[N+](=O)[O-])CC2C)c1 (configuration not stated),"inconclusive: 31.6 µM [inhibitor, full curve]",

SMILES,Potency,"activity change, negative = inhibition"
COc1cc(C(=O)Nc2nc3ccccc3[nH]2)ccc1OC(F)F,"inconclusive: 89.1 µM [inhibitor, single point]",
CN(C)CCCNC(=S)NCC(c1ccc(Cl)cc1Cl)c1c[nH]c2ccccc12 (configuration not stated),"inconclusive: 89.1 µM [inhibitor, single point]",
Cn1nc(CC(=O)NCc2ccc(C(F)(F)F)cc2)c2ccccc2c1=O,"inconclusive: 89.1 µM [inhibitor, single point]",
CC(=O)N1CCN(C(=S)NC(=O)C23CC4CC(CC(C4)C2)C3)CC1,"inconclusive: 89.1 µM [inhibitor, single point]",
C=CCc1cccc2cc(-c3nc4ccc(C)cc4[nH]3)c(=O)oc12,,inactive: 6.6%
CCc1nn(CC(=O)NCc2ccco2)c(=O)c2cc3c(OC)cccc3n12,,inactive: 24.8%
CCOc1ccc(N2C(=O)CNC2=S)cc1,"inconclusive: 3.55 µM [inhibitor, single point]",
COc1cc(/C=C/c2cccc[n+]2C)ccc1OCC(=O)Nc1ccccc1,active: 15.8 µM,
CCOC(=O)c1ccc(NC(=O)CNC(=O)c2ccco2)cc1,active: 56.2 µM,
O=C(O)c1ccccc1-n1ncc2c1/C(=C/c1ccc(Cl)cc1)CC2,active: 39.8 µM,
COc1ccccc1CNC(=O)Cn1c(=O)c2cccn2c2cccnc21,"inconclusive: 2.82 µM [inhibitor, single point]",
NC(N)=NC(N)=Nc1ccc2ccccc2c1,"inconclusive: 1.78 µM [inhibitor, full curve]",
CCCCOc1ccc(-c2nc(/C=N/c3nccs3)c(O)o2)cc1,,inactive: -0.525%
N#Cc1nc(-c2ccc(COc3ccc(Cl)cc3)o2)oc1N1CCC(C(N)=O)CC1,"inconclusive: 89.1 µM [inhibitor, single point]",
CC(Sc1nnc2ccccn12)C(=O)Nc1ccc2c(c1)OCO2 (configuration not stated),,inactive: 7.57%
Cc1ccc(-c2nnc3ccc(SCC(=O)Nc4cc(C)on4)nn23)cc1,"inconclusive: 89.1 µM [inhibitor, single point]",
O=C(O)CCc1ccc(-c2ccccc2)n1Cc1ccco1,,inactive: -2.28%
COc1cccc(CNC(=O)c2cccc(-n3c(C)nc4cccnc43)c2)c1OC,,inactive: 4.66%
COc1cc(NC(=O)CSc2ccc(-c3cccnc3)nn2)cc(OC)c1,"inconclusive: 20 µM [inhibitor, full curve]",
CCC(Cc1ccccc1)NC(=O)CSc1ccsc1[N+](=O)[O-] (configuration not stated),,inactive: -11.4%
Cc1ccc(-n2nc(-c3ccco3)cc2C(=O)O)cc1,,inconclusive: -126% [inhibitor]
Cc1nn(C)c2c1c(-c1ccccc1)cc(=O)n2CC(=O)NC(C)c1ccccc1 (configuration not stated),active: 14.1 µM,
CN(C)CCNC(=S)Nc1ccc(-c2nc3ccccc3[nH]2)cc1,"inconclusive: 25.1 µM [inhibitor, partial curve, poor fit]",
NS(=O)(=O)c1ccc(CCNC(=O)C2CCC(Cn3c(=S)[nH]c4ccccc4c3=O)CC2)cc1 (configuration not stated),"inconclusive: 3.55 µM [inhibitor, full curve]",
